In article PMC6174329, “Functional Characterization of Arabidopsis PHL4 in Plant Response to Phosphate Starvation”:
No constants are given. Whether binding was seen depends on the method and setting. In cells and extracts the contact can be indirect. Some binding calls cover weakened binding; strength is not graded here. Sequences can lack the tags named with a protein. Blank lines part the entries; values can stand above or below the binder they belong to.

By UniProt entry, the sequences of proteins in these tests, tags left out.
UniProt Q94CL7: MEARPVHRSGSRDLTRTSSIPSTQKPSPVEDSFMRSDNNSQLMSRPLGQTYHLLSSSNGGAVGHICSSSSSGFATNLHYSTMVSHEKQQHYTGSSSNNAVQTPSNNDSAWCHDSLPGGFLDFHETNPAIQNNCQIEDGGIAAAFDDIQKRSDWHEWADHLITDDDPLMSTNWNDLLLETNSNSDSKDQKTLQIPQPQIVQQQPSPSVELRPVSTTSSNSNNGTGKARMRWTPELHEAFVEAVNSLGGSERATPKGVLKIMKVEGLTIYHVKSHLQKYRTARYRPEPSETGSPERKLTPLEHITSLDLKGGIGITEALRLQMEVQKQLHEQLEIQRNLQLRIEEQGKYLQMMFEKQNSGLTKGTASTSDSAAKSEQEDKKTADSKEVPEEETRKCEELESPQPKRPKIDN

Columns and labels:
[1] = target: cLUC-PHR1 (PHR1, PHOSPHATE STARVATION RESPONSE 1, fused with the C-terminal half of luciferase) (Arabidopsis thaliana) (UniProt Q94CL7); assay: split reporter; luciferase complementation imaging (LCI); constructs co-infiltrated into leaves of N. benthamiana, LUC signals recorded 2 d after infiltration
[2] = target: cYFP-PHR1 (Arabidopsis thaliana) (UniProt Q94CL7); assay: split reporter; BiFC; PHL4-nYFP and cYFP-PHR1 co-infiltrated into leaves of N. benthamiana, YFP fluorescence detected 2 days after infiltration by confocal microscopy, nuclei shown by DAPI
[3] = target: T1, PHL3 (PHR1-LIKE 3), LCI fusion used as positive control (Arabidopsis thaliana) (UniProt Q8LAJ7); assay: split reporter; luciferase complementation imaging (LCI); constructs co-infiltrated into leaves of N. benthamiana, LUC signals recorded 2 d after infiltration
T1 sequence: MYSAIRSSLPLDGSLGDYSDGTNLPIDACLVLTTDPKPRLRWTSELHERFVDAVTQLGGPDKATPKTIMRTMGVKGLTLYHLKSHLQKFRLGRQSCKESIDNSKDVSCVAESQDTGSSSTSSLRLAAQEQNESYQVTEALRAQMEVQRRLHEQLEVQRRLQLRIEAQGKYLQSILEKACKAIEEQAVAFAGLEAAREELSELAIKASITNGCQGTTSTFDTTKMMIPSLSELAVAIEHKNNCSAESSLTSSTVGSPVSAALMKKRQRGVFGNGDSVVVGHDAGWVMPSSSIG

- binding [1]: binds
B1: PHL4-nLUC (PHL4, PHR1-LIKE 4, fused with the N-terminal half of luciferase) (protein, UniProt Q8GXC2 1-397)
chain: MIPNDDDDANSMKNYPLNDDDANSMKNYPLNDDDANSMENYPLRSIPTELSHTCSLIPPSLPNPSEAAADMSFNSELNQIMARPCDMLPANGGAVGHNPFLEPGFNCPETTDWIPSPLPHIYFPSGSPNLIMEDGVIDEIHKQSDLPLWYDDLITTDEDPLMSSILGDLLLDTNFNSASKVQQPSMQSQIQQPQAVLQQPSSCVELRPLDRTVSSNSNNNSNSNNAAAAAKGRMRWTPELHEVFVDAVNQLGGSNEATPKGVLKHMKVEGLTIFHVKSHLQKYRTAKYIPVPSEGSPEARLTPLEQITSDDTKRGIDITETLRIQMEHQKKLHEQLESLRTMQLRIEEQGKALLMMIEKQNMGFGGPEQGEKTSAKTPENGSEESESPRPKRPRNEE

- binding [2]: binds
B2: PHL4-nYFP (protein, UniProt Q8GXC2 1-397)
chain: MIPNDDDDANSMKNYPLNDDDANSMKNYPLNDDDANSMENYPLRSIPTELSHTCSLIPPSLPNPSEAAADMSFNSELNQIMARPCDMLPANGGAVGHNPFLEPGFNCPETTDWIPSPLPHIYFPSGSPNLIMEDGVIDEIHKQSDLPLWYDDLITTDEDPLMSSILGDLLLDTNFNSASKVQQPSMQSQIQQPQAVLQQPSSCVELRPLDRTVSSNSNNNSNSNNAAAAAKGRMRWTPELHEVFVDAVNQLGGSNEATPKGVLKHMKVEGLTIFHVKSHLQKYRTAKYIPVPSEGSPEARLTPLEQITSDDTKRGIDITETLRIQMEHQKKLHEQLESLRTMQLRIEEQGKALLMMIEKQNMGFGGPEQGEKTSAKTPENGSEESESPRPKRPRNEE

- binding [3]: binds
B3: PHL2 (PHR1-LIKE 2), LCI fusion used as positive control (protein, UniProt Q94A57 1-295)
chain: MYSAIRSLPLDGGHVGGDYHGPLDGTNLPGDACLVLTTDPKPRLRWTTELHERFVDAVTQLGGPDKATPKTIMRTMGVKGLTLYHLKSHLQKFRLGRQAGKESTENSKDASCVGESQDTGSSSTSSMRMAQQEQNEGYQVTEALRAQMEVQRRLHDQLEVQRRLQLRIEAQGKYLQSILEKACKAFDEQAATFAGLEAAREELSELAIKVSNSSQGTSVPYFDATKMMMMPSLSELAVAIDNKNNITTNCSVESSLTSITHGSSISAASMKKRQRGDNLGVGYESGWIMPSSTIG
